# Experimental data as given in PMC3799622.
# Amino acid sequences for entries named in this document (tags omitted).
# UniProt P0C0S5: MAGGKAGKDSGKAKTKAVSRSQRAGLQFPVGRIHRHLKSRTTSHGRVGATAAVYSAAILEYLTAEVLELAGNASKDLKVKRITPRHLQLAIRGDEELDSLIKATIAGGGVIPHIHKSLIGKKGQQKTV
# UniProt Q96KQ7: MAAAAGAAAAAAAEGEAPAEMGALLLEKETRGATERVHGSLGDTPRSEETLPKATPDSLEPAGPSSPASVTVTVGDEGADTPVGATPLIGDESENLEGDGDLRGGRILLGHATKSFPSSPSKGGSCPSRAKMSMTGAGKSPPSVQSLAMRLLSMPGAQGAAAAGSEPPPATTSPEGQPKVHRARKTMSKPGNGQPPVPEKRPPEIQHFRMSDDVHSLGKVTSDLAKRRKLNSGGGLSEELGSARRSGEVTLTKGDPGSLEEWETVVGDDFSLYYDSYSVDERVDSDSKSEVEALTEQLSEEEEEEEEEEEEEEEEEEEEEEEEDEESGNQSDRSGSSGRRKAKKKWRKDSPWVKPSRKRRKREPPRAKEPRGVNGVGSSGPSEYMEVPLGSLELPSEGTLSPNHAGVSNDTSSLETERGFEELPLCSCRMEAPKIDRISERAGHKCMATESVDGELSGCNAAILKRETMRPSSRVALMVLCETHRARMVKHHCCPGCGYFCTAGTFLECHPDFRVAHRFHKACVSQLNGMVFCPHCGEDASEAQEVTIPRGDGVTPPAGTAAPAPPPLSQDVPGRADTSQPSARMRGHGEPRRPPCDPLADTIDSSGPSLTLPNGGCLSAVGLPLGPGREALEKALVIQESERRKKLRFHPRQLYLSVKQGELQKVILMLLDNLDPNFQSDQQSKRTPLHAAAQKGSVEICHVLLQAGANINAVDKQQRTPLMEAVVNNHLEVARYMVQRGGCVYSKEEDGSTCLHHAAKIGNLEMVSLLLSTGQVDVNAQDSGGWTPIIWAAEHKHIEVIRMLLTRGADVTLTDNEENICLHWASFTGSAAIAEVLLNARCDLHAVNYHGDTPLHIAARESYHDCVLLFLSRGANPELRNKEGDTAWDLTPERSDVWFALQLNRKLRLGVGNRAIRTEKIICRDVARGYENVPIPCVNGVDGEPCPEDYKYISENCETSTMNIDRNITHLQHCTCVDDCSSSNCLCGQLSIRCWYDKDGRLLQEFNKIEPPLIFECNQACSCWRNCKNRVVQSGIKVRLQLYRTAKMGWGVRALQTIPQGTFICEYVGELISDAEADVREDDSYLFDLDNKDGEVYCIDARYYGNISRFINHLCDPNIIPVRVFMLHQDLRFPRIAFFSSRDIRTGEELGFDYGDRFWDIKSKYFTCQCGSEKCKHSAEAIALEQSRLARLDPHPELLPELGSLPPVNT
# No constants are given. Whether binding was seen depends on the method and setting. For part of these data: In cells and extracts the contact can be indirect. Some binding calls cover weakened binding; strength is not graded here. For part of these data: Sequences can lack the tags named with a protein.
# B1: GFP-RAI1(1523-1627) (domain or fragment, UniProt Q7Z5J4 1523-1627)
# chain: QKQPGHTNYSSYSKRKRLTRGRAKNTTSSPCKGRAKRRRQQQVLPLDPAEPEIRLKYISSCKRLRSDSRTPAFSPFVRVEKRDAFTTICTVVNSPGDAPKPHRKP
# modifications: 35S label
# B2: GFP-SPBP (1551-1666) (domain or fragment, UniProt Q9UGU0 1551-1666)
# chain: KKQQQPPPPPPQPPQIPEGSADGEPKPKKQRQRRERRKPGAQPRKRKTKQAVPIVEPQEPEIKLKYATQPLDKTDAKNKSFYPYIHVVNKCELGAVCTIINAEEEEQTKLVRGRKG
# modifications: 35S label
# Tests used:
# [1] = target: SPBP as used in the yeast two-hybrid screen (unpublished results) (human) (UniProt Q9UGU0); assay: two-hybrid; yeast two-hybrid screen with SPBP; unpublished results
# [2] = target: GST-H2AZ (UniProt P0C0S5); assay: pull-down; GST-histones expressed and purified from E. coli incubated with in vitro translated 35S-labeled GFP fusions; SDS-PAGE, PhosphorImager; only the target purified
Molecule,binding [1],binding [2]
chromatin modulator G9a (from UniProt Q96KQ7 1-1210),binds,–
B1,–,binds
B2,–,binds
